Measurements: patent US20110052585A1 (Sanofi, published 2011)
No constants are given. Whether binding was seen depends on the method and setting. Some binding calls cover weakened binding; strength is not graded here.

Key:
[1] = molecular target: T1, rhIL-17 (human) (UniProt Q16552); experiment: ELISA, plates pre-coated with IL-17, conditioned medium with soluble receptor, receptor-specific detection antibody
T1 sequence (looked up): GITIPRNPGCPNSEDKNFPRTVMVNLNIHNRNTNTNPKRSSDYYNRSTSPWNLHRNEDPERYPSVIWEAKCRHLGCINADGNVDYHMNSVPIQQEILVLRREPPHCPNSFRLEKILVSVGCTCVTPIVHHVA

[2] = molecular target: T1, rhIL-17 (human); experiment: ELISA, ligand coated on plate, conditioned medium with soluble receptor
[3] = molecular target: T1, rhIL-17 (human); experiment: competition ELISA: IL-17 at 1 ng/ml preincubated with serial dilutions of receptor, free IL-17 measured by ELISA

Measured: binding

B1: sIL17RA-9gly-CH3 (Fc fusion)
chain: SLRLLDHRALVCSQPGLNCTVKNSTCLDDSWIHPRNLTPSSPKDLQIQLHFAHTQQGDLFPVAHIEWTLQTDASILYLEGAELSVLQLNTNERLCVRFEFLSKLRHHHRRWRFTFSHFVVDPDQEYEVTVHHLPKPIPDGDPNHQSKNFLVPDCEHARMKVTTPCMSSGSLWDPNITVETLEAHQLRVSFTLWNESTHYQILLTSFPHMENHSCFEHMHHIPAPRPEEFHQRSNVTLTLRNLKGCCRHQVQIQPFFSSCLNDCLRHSATVSCPEMPDTPEPIPDYMTGGGGGGGGGQPREPQVYTLPPSRDELTKNQVSLTCLVKGFYPSDIAVEWESNGQPENNYKTTPPVLDSDGSFFLYSKLTVDKSRWQQGNVFSCSVMHEALHNHYTQKSLSLSPG
binds: all assays above
